Laboratory results: PubChem BioAssay AID1671195 (Yale University, 2021)

Purpose: 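Regulators of LDL receptor activity judged by labelled LDL uptake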 (primary screen)
Cells: human Huh7 hepatoma cells
Reagent: siRNA pool against human genes, 18 nM
Duration: about 2 to 2.5 days of knockdown, then 8 h LDL uptake
Challenge: DiI-labelled LDL at 30 µg/ml for 8 h, in lipoprotein-deficient serum medium
Measurement: 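Fluorescent LDL signal imaged in cells, scaled to the plate median, robust z-score for each replicate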
Direction: robust z-score: higher = more LDL uptake after knockdown
Active means: 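Active when two or more replicates show a robust z-score above 2 or below -2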
In all, the deposit lists about 22,000 reagents; this is an unselected part. Over the whole deposit, about 1,510 (6.9%) got an active call. 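Active includes knockdowns raising or lowering LDL uptake; positive z-scores mean more uptake, negative mean less.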

gene	PubChem SID	robust z-score, replicate 1	robust z-score, replicate 2	robust z-score, replicate 3	outcome
CNIH3 (GeneID 149111)	SID442886493	0.884	1.45	1.1	inactive
LOC441068 (retired record) (GeneID 441068)	SID442896601	-0.185	-0.195	-0.495	inactive
CFH (GeneID 3075)	SID442890783	1.24	-0.76	0.625	inactive
EXOC5 (GeneID 10640)	SID442884789	1.61	1.6	2.46	inactive
ACTL8 (GeneID 81569)	SID442892252	0.399	0.462	-0.285	inactive
C9 (GeneID 735)	SID442898802	-0.748	-1.19	0.323	inactive
CDC14C (GeneID 168448)	SID442901287	-0.853	-0.772	-1.01	inactive
TYMSOS (GeneID 494514)	SID442887539	0.67	1.18	0.824	inactive
ZNF99 (GeneID 7652)	SID442902234	0.0562	-1.82	-1.35	inactive
GPR179 (GeneID 440435)	SID442903544	-1.84	-1.76	-0.363	inactive
ANKRD30BP3 (GeneID 338579)	SID442885146	1.55	1.88	1.54	inactive
GLIPR1L2 (GeneID 144321)	SID442885467	0.489	1.72	2.29	inactive
MDK (GeneID 4192)	SID442885464	1.8	1.36	1.35	inactive
LBHD1 (GeneID 79081)	SID442890014	0.441	0.464	0.521	inactive
CACNG5 (GeneID 27091)	SID442896245	-0.207	-0.585	0.0345	inactive
LIN54 (GeneID 132660)	SID442891914	0.908	0.129	-0.347	inactive
CEACAM7 (GeneID 1087)	SID442893675	-0.351	-0.337	0.755	inactive
ZBTB21 (GeneID 49854)	SID442895166	-0.167	-0.0212	-0.237	inactive
GNA13 (GeneID 10672)	SID442904007	-1.71	-1.44	-1.24	inactive
BDNF (GeneID 627)	SID442893790	-0.889	-0.733	1.65	inactive
HTN1 (GeneID 3346)	SID442889065	-0.163	0.72	1.3	inactive
SYAP1 (GeneID 94056)	SID442891442	0.138	-0.191	0.912	inactive
UBE2I (GeneID 7329)	SID442903718	-0.871	-1.85	-1.38	inactive
BAHCC1 (GeneID 57597)	SID442896131	-0.979	0.538	-0.283	inactive
PAGE5 (GeneID 90737)	SID442902858	-1.5	-0.791	-1.19	inactive
ASH1L (GeneID 55870)	SID442891778	0.493	-0.279	0.524	inactive
SLBP (GeneID 7884)	SID442898199	-0.548	-1.53	0.667	inactive
CCNB1 (GeneID 891)	SID442896049	-0.702	0.433	-0.429	inactive
LINC02595 (GeneID 401585)	SID442892281	-0.164	0.251	0.474	inactive
TSPYL2 (GeneID 64061)	SID442893097	0.161	0.121	-0.0156	inactive

8 entries already listed, arranged by “robust z-score, replicate 1”, low to high:
gene	PubChem SID	robust z-score, replicate 1	robust z-score, replicate 2	robust z-score, replicate 3	outcome
GPR179 (GeneID 440435)	SID442903544	-1.84	-1.76	-0.363	inactive
CDC14C (GeneID 168448)	SID442901287	-0.853	-0.772	-1.01	inactive
ZNF99 (GeneID 7652)	SID442902234	0.0562	-1.82	-1.35	inactive
LBHD1 (GeneID 79081)	SID442890014	0.441	0.464	0.521	inactive
GLIPR1L2 (GeneID 144321)	SID442885467	0.489	1.72	2.29	inactive
TYMSOS (GeneID 494514)	SID442887539	0.67	1.18	0.824	inactive
ANKRD30BP3 (GeneID 338579)	SID442885146	1.55	1.88	1.54	inactive
MDK (GeneID 4192)	SID442885464	1.8	1.36	1.35	inactive

Further entries follow:
gene	PubChem SID	robust z-score, replicate 1	robust z-score, replicate 2	robust z-score, replicate 3	outcome
OR5I1 (GeneID 10798)	SID442902839	-0.998	-1.3	-1.18	inactive
SYT1 (GeneID 6857)	SID442883103	6.86	6.11	7.06	active
SLC2A11 (GeneID 66035)	SID442903003	-1.26	-1.17	-1.15	inactive
NDUFAF1 (GeneID 51103)	SID442901820	-1.76	-0.368	-0.766	inactive
CALHM1 (GeneID 255022)	SID442889089	0.559	0.488	0.795	inactive
CYB5B (GeneID 80777)	SID442898053	-0.509	-0.284	-0.578	inactive
CATSPER1 (GeneID 117144)	SID442893353	0.09	-0.296	0.388	inactive
ARL5A (GeneID 26225)	SID442899923	-0.686	-0.494	-0.883	inactive
UBXN2A (GeneID 165324)	SID442887300	1.19	0.808	0.829	inactive
HSP90B1 (GeneID 7184)	SID442900882	-1.11	-0.944	-0.41	inactive
HHCM (GeneID 10639)	SID442888219	1.35	-0.189	1.13	inactive
MAGEB17 (GeneID 645864)	SID442886475	1.57	1.08	0.803	inactive
TAF7L (GeneID 54457)	SID442892046	0.378	0.32	-0.0513	inactive
VIPR1 (GeneID 7433)	SID442901350	-0.691	-0.963	-1.01	inactive
E2F3 (GeneID 1871)	SID442886103	1.83	2.01	-0.0392	inactive
NMUR2 (GeneID 56923)	SID442887191	0.614	0.952	1.33	inactive
LOC391528 (retired record) (GeneID 391528)	SID442901285	-0.603	-0.937	-1.09	inactive
FAM86C1P (GeneID 55199)	SID442894431	0.503	-1.53	0.84	inactive
ODAM (GeneID 54959)	SID442888583	0.862	1.56	-0.335	inactive
SHKBP1 (GeneID 92799)	SID442903835	-1.95	-1.14	-1.12	inactive
PLEKHD1 (GeneID 400224)	SID442886802	1.53	0.819	0.827	inactive
LOC346910 (retired record) (GeneID 346910)	SID442893115	0.403	0.144	-0.286	inactive
RUBCN (GeneID 9711)	SID442896699	0.358	-0.444	-0.82	inactive
TM4SF18 (GeneID 116441)	SID442890044	-0.129	0.683	0.862	inactive
LOC441650 (retired record) (GeneID 441650)	SID442891416	0.605	0.0867	0.175	inactive
FLJ44796 (retired record) (GeneID 401209)	SID442891841	0.226	0.0845	0.407	inactive
RASL10A (GeneID 10633)	SID442895591	0.289	-0.652	-0.19	inactive
WBP2NL (GeneID 164684)	SID442894781	-0.0173	-0.00689	-0.276	inactive
EVC2 (GeneID 132884)	SID442891695	0.535	-0.376	0.603	inactive
PRPF39 (GeneID 55015)	SID442895914	-0.188	1.4	-1.87	inactive
SGO2 (GeneID 151246)	SID442890589	1.19	0.0914	-0.0915	inactive
TSGA10IP (GeneID 254187)	SID442893484	-0.0156	0.186	-0.036	inactive
LINC01749 (GeneID 63930)	SID442883598	2.4	2.73	2.68	active
TDRD9 (GeneID 122402)	SID442898704	-0.681	-0.355	-0.549	inactive
C1QA (GeneID 712)	SID442896164	-0.471	-0.0802	-0.181	inactive
CT55 (GeneID 54967)	SID442885710	0.907	2.07	1.21	inactive
SIRPA (GeneID 140885)	SID442894538	-0.219	0.0736	-0.0726	inactive
WASF3 (GeneID 10810)	SID442883453	3.08	3.38	2.14	active
